This is an account of results in publication doi:10.1101/2025.04.22.649924.

By UniProt entry, the sequences of proteins in these tests, tags left out. Residues count along the entry.
UniProt Q92673, residues 82-2214: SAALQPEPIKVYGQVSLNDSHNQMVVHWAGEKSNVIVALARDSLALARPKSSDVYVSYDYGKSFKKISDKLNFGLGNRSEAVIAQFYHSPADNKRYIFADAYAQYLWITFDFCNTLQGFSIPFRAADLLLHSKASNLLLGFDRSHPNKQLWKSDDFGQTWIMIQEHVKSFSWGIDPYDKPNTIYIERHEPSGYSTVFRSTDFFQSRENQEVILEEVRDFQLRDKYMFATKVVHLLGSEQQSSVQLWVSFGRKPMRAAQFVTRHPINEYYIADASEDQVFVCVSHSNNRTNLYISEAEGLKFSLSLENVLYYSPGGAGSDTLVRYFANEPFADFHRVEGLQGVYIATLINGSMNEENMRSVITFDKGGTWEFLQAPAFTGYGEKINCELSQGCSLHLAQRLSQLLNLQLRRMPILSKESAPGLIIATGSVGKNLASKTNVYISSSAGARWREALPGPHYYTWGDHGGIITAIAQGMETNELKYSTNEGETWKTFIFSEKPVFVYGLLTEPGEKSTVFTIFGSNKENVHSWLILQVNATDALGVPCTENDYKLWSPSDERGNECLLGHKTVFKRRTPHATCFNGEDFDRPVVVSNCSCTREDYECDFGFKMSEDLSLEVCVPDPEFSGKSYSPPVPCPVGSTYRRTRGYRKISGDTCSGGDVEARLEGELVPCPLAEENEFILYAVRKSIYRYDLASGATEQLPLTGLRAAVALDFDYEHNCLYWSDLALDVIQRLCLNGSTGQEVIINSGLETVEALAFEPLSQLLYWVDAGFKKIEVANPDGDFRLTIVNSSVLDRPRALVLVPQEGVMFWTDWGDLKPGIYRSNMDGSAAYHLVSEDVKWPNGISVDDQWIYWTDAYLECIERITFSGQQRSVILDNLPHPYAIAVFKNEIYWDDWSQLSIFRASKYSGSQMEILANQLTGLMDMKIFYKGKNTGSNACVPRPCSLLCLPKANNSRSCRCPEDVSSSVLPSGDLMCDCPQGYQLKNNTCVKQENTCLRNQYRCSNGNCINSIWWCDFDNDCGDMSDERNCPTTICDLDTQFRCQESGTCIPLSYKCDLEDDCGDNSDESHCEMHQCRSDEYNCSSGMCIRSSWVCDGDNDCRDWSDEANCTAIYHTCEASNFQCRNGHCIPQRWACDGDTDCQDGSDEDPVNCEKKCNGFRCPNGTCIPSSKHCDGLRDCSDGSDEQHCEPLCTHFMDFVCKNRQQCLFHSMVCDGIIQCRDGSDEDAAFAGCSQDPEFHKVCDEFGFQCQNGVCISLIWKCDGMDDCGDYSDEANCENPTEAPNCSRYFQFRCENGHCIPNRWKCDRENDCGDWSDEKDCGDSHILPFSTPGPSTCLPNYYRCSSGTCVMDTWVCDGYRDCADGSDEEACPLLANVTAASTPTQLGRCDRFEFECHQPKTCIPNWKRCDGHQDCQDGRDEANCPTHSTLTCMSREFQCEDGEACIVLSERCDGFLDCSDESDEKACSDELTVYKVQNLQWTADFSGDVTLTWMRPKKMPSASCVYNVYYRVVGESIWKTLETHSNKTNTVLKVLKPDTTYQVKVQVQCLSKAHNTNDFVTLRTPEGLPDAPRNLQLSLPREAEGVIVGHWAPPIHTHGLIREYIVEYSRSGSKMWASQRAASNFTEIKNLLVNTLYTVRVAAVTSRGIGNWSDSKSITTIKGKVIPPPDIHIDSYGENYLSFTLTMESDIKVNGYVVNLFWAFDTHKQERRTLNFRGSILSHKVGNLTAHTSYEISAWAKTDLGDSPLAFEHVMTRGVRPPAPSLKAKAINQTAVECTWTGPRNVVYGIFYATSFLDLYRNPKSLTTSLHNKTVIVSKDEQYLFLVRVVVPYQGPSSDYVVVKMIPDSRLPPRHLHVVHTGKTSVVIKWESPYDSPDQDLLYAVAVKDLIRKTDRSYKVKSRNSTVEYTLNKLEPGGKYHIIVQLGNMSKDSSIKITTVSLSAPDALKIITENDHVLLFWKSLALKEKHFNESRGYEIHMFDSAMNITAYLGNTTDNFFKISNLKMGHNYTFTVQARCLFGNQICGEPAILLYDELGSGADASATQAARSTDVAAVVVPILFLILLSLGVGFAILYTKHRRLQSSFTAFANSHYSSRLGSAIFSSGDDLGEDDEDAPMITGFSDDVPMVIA
UniProt P05067, residues 18-770: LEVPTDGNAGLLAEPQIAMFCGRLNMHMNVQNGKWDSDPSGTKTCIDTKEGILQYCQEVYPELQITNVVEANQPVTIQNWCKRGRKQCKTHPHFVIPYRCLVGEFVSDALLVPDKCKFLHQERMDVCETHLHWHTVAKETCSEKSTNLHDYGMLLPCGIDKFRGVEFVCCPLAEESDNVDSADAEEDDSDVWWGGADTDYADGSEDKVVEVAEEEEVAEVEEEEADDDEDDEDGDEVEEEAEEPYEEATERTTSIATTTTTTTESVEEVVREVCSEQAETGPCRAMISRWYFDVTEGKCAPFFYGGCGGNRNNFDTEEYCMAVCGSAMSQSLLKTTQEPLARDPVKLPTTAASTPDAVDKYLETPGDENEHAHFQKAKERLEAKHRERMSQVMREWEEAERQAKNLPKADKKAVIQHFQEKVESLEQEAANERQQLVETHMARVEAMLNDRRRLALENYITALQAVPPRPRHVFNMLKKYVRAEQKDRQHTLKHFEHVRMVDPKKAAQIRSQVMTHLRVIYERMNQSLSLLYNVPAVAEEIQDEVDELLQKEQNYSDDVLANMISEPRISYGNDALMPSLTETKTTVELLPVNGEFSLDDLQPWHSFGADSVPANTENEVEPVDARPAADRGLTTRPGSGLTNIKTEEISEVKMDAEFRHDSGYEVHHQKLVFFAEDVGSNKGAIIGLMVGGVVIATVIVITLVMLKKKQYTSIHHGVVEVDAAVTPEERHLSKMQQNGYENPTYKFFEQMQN

Results are given in words; binding and its absence hold for the method and conditions named. Binding seen in cells or lysates may run through a third protein. These calls come from enrichment with a bait or labelling near it, and not all partners need be listed.

For the test, the target named is SORLA^WT stably expressed in SY5Y cells (human) (UniProt Q92673). The test can be described thus: affinity purification with mass spectrometry.

Turning to “amyloid precursor protein (APP) in SY5Y cell lysate (from UniProt P05067 18-770)”, the binding result is recorded as “binds”.
